Data published in patent US20260263599A1 (AUTOLUS, published 2026).
No constants are given. Whether binding was seen depends on the method and setting. Some entries that bind do so weakly or less than the wild type.

Amino acid sequences for entries named in this document (tags omitted). Residues count along the entry.
UniProt P01850, residues 1-144: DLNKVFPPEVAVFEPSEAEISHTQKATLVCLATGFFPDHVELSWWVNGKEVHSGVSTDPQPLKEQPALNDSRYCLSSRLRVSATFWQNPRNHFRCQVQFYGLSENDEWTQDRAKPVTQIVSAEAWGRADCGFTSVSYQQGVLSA

molecular target: T Cell Receptor Beta Constant 1 (TRBC1) (human) (UniProt P01850); assay: ELISA

Row | binding | Binder
1 | binds | Jovi Hum 18 (antibody, V domains shown, also called H-AF 4) VH: QVQLVQSGAEVKKPGASVKVSCKASGYTFTGYVMHWVRQAPGQGLEWMGFINPYNDDIQSNERFRGRVTMTSDKSISTAYMELSRLRSDDTAVYYCARGAGYNFDGAYRFFDFWGQGTMVTVSS VL: DIVMTQSPLSLPVTPGEPASISCRSSQRLVHSNGNTYLHWYLQKPGQSPRLLIYRVSNRFPGVPDRFSGSGSGTDFTLKISRVEAEDVGVYYCSQSTHVPYTFGQGTKLEIK
2 | binds | Jovi Hum 21 (antibody, V domains shown, also called H-AF 7) VH: QVQLVQSGAEVKKPGASVKVSCKASGYTFTGYVMHWVRQAPGQGLEWIGFINPYNDDIQSNERFRGRVTMTSDTSISTAYMELSRLRSDDTAVYYCARGAGYNFDGAYRFFDFWGQGTMVTVSS VL: DIVMTQSPLSLPVTPGEPASISCRSSQRLVHSNGNTYLHWYLQKPGQSPRLLIYRVSNRFPGVPDRFSGSGSGTDFTLKISRVEAEDVGVYYCSQSTHVPYTFGQGTKLEIK
3 | binds | Jovi Hum 27 (antibody, V domains shown, also called H-AF 13) VH: QVQLVQSGAEVKKPGASVKMSCKASGYTFTGYVMHWVRQAPGQGLEWIGFINPYNDDIQSNERFRGRVTMTRDTSISTAYMELSRLRSDDTAVYYCARGAGYNFDGAYRFFDFWGQGTMVTVSS VL: DIVMTQSPLSLPVTPGEPASISCRSSQRLVHSNGNTYLHWYLQKPGQSPRLLIYRVSNRFPGVPDRFSGSGSGTDFTLKISRVEAEDVGVYYCSQSTHVPYTFGQGTKLEIK
4 | binds | Jovi Hum 17 (antibody, V domains shown, also called H-AF 3) VH: QVQLVQSGAEVKKPGASVKVSCKASGYTFTGYVMHWVRQAPGQGLEWMGFINPYNDDIQSNERFRGRVTMTSDTSISTAYMELSRLRSDDTAVYYCARGAGYNFDGAYRFFDFWGQGTMVTVSS VL: DIVMTQSPLSLPVTPGEPASISCRSSQRLVHSNGNTYLHWYLQKPGQSPRLLIYRVSNRFPGVPDRFSGSGSGTDFTLKISRVEAEDVGVYYCSQSTHVPYTFGQGTKLEIK
5 | binds | Jovi Hum 16 (antibody, V domains shown, also called H-AF 2) VH: QVQLVQSGAEVKKPGASVKVSCKASGYTFTGYVMHWVRQAPGQGLEWMGFINPYNDDIQSNERFRGRVTMTRDKSISTAYMELSRLRSDDTAVYYCARGAGYNFDGAYRFFDFWGQGTMVTVSS VL: DIVMTQSPLSLPVTPGEPASISCRSSQRLVHSNGNTYLHWYLQKPGQSPRLLIYRVSNRFPGVPDRFSGSGSGTDFTLKISRVEAEDVGVYYCSQSTHVPYTFGQGTKLEIK
6 | binds | Jovi Hum 19 (antibody, V domains shown, also called H-AF 5) VH: QVQLVQSGAEVKKPGASVKVSCKASGYTFTGYVMHWVRQAPGQGLEWIGFINPYNDDIQSNERFRGRVTMTRDTSISTAYMELSRLRSDDTAVYYCARGAGYNFDGAYRFFDFWGQGTMVTVSS VL: DIVMTQSPLSLPVTPGEPASISCRSSQRLVHSNGNTYLHWYLQKPGQSPRLLIYRVSNRFPGVPDRFSGSGSGTDFTLKISRVEAEDVGVYYCSQSTHVPYTFGQGTKLEIK

The next lines start with the binder.

Row | Binder | binding
7 | chimeric antibody having murine JOVI-1 VH and VL domains (antibody, V domains shown) VH: EVRLQQSGPDLIKPGASVKMSCKASGYTFTGYVMHWVKQRPGQGLEWIGFINPYNDDIQSNERFRGKATLTSDKSSTTAYMELSSLTSEDSAVYYCARGAGYNFDGAYRFFDFWGQGTTLTVSS VL: DVVMTQSPLSLPVSLGDQASISCRSSQRLVHSNGNTYLHWYLQKPGQSPKLLIYRVSNRFPGVPDRFSGSGSGTDFTLKISRVEAEDLGIYFCSQSTHVPYTFGGGTKLEIKR | binds
8 | chimeric antibody with humanised VH (H-KF688165 framework) and murine JOVI-1 VL (antibody, V domains shown) VH: QVQLVQSGAEVKKPGASVKVSCKASEYSFTGYVMHWVRQAPGQGLEWMGFINPYNDDIQSNERFRGRVTMTRDTSISTAYMEVSSLTSDDAAIYYCARGAGYNFDGAYRFFDFWGQGTLVTVSS VL: DVVMTQSPLSLPVSLGDQASISCRSSQRLVHSNGNTYLHWYLQKPGQSPKLLIYRVSNRFPGVPDRFSGSGSGTDFTLKISRVEAEDLGIYFCSQSTHVPYTFGGGTKLEIKR | binds
9 | chimeric antibody with humanised VH (H-EF177999 framework) and murine JOVI-1 VL (antibody, V domains shown) VH: EVQLVESGAEVKKPGASVKVSCKASGYTFTGYVMHWVRQAPGQGLEWMGFINPYNDDIQSNERFRGRVTMTRDTSTSTVYMELSSLRSEDTAVYYCARGAGYNFDGAYRFFDFWGQGTLVTVSS VL: DVVMTQSPLSLPVSLGDQASISCRSSQRLVHSNGNTYLHWYLQKPGQSPKLLIYRVSNRFPGVPDRFSGSGSGTDFTLKISRVEAEDLGIYFCSQSTHVPYTFGGGTKLEIKR | binds
10 | chimeric antibody with murine JOVI-1 VH and humanised VL (3aaz framework) (antibody, V domains shown) VH: EVRLQQSGPDLIKPGASVKMSCKASGYTFTGYVMHWVKQRPGQGLEWIGFINPYNDDIQSNERFRGKATLTSDKSSTTAYMELSSLTSEDSAVYYCARGAGYNFDGAYRFFDFWGQGTTLTVSS VL: DIVMTQSPLSLPVTPGEPASISCRSSQRLVHSNGNTYLHWYLQKPGQSPRLLIYRVSNRFPGVPDRFSGSGSGTDFTLKISRVEAEDVGVYYCSQSTHVPYTFGQGTKLEIK | binds
11 | chimeric antibody with humanised VH (H-AF062256 framework) and murine JOVI-1 VL (antibody, V domains shown) VH: QVQLVQSGAEVKKPGASVKVSCKASGYTFTGYVMHWVRQAPGQGLEWMGFINPYNDDIQSNERFRGRVTMTRDTSISTAYMELSRLRSDDTAVYYCARGAGYNFDGAYRFFDFWGQGTMVTVSS VL: DVVMTQSPLSLPVSLGDQASISCRSSQRLVHSNGNTYLHWYLQKPGQSPKLLIYRVSNRFPGVPDRFSGSGSGTDFTLKISRVEAEDLGIYFCSQSTHVPYTFGGGTKLEIKR | binds
12 | Jovi Hum 8 (antibody, V domains shown, also called H-AF 1; humanised antibody with H-AF062256 VH and 3aaz VL) VH: QVQLVQSGAEVKKPGASVKVSCKASGYTFTGYVMHWVRQAPGQGLEWMGFINPYNDDIQSNERFRGRVTMTRDTSISTAYMELSRLRSDDTAVYYCARGAGYNFDGAYRFFDFWGQGTMVTVSS VL: DIVMTQSPLSLPVTPGEPASISCRSSQRLVHSNGNTYLHWYLQKPGQSPRLLIYRVSNRFPGVPDRFSGSGSGTDFTLKISRVEAEDVGVYYCSQSTHVPYTFGQGTKLEIK | binds
13 | humanised antibody with humanised VH (H-EF177999 framework) and humanised VL (3aaz framework) (antibody, V domains shown) VH: EVQLVESGAEVKKPGASVKVSCKASGYTFTGYVMHWVRQAPGQGLEWMGFINPYNDDIQSNERFRGRVTMTRDTSTSTVYMELSSLRSEDTAVYYCARGAGYNFDGAYRFFDFWGQGTLVTVSS VL: DIVMTQSPLSLPVTPGEPASISCRSSQRLVHSNGNTYLHWYLQKPGQSPRLLIYRVSNRFPGVPDRFSGSGSGTDFTLKISRVEAEDVGVYYCSQSTHVPYTFGQGTKLEIK | binds
14 | humanised antibody with humanised VH (H-KF688165 framework) and humanised VL (3aaz framework) (antibody, V domains shown) VH: QVQLVQSGAEVKKPGASVKVSCKASEYSFTGYVMHWVRQAPGQGLEWMGFINPYNDDIQSNERFRGRVTMTRDTSISTAYMEVSSLTSDDAAIYYCARGAGYNFDGAYRFFDFWGQGTLVTVSS VL: DIVMTQSPLSLPVTPGEPASISCRSSQRLVHSNGNTYLHWYLQKPGQSPRLLIYRVSNRFPGVPDRFSGSGSGTDFTLKISRVEAEDVGVYYCSQSTHVPYTFGQGTKLEIK | binds
15 | Jovi Hum 20 (antibody, V domains shown, also called H-AF 6) VH: QVQLVQSGAEVKKPGASVKVSCKASGYTFTGYVMHWVRQAPGQGLEWIGFINPYNDDIQSNERFRGRVTMTRDKSISTAYMELSRLRSDDTAVYYCARGAGYNFDGAYRFFDFWGQGTMVTVSS VL: DIVMTQSPLSLPVTPGEPASISCRSSQRLVHSNGNTYLHWYLQKPGQSPRLLIYRVSNRFPGVPDRFSGSGSGTDFTLKISRVEAEDVGVYYCSQSTHVPYTFGQGTKLEIK | binds
16 | Jovi Hum 26 (antibody, V domains shown, also called H-AF 12) VH: QVQLVQSGAEVKKPGASVKMSCKASGYTFTGYVMHWVRQAPGQGLEWMGFINPYNDDIQSNERFRGRVTMTSDKSISTAYMELSRLRSDDTAVYYCARGAGYNFDGAYRFFDFWGQGTMVTVSS VL: DIVMTQSPLSLPVTPGEPASISCRSSQRLVHSNGNTYLHWYLQKPGQSPRLLIYRVSNRFPGVPDRFSGSGSGTDFTLKISRVEAEDVGVYYCSQSTHVPYTFGQGTKLEIK | binds
